Measurements as given in the supplement of paper PMC8256030.
Several values for one entry are separate records, joined by “and”; a condition that tells them apart may be missing. Equal values may be shown once. Where a name gives a salt, the structure may show the parent alone. This is one part of the list. This data set is noisy: repeats of one test often differ as much as different tests do.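 HEK293T cells were given each compound shortly before transfection with a reporter in which red mCherry is followed by the SARS-CoV-2 frameshift element and then GFP in the −1 frame, so GFP appears only after frameshifting.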

How the values were obtained:
[1] = tested on: SARS-CoV-2 -1 PRF reporter mCherry-FSE-GFP(-1); assay: mCherry (red) intensity as percent of control; higher = higher upstream reporter expression; settings: 10 µM; 24 h; HEK293T
[2] = tested on: SARS-CoV-2 -1 PRF reporter mCherry-FSE-GFP(-1); assay: percent effect, decrease of GFP/mCherry ratio (-1 PRF reporter) relative to controls; higher = stronger frameshift inhibition; settings: 10 µM; 24 h; HEK293T

SMILES	mCherry [1]	percent effect [2]
CCCC(=O)O[C@]1(C(=O)CO)CC[C@H]2[C@@H]3CCC4=CC(=O)CC[C@]4(C)[C@H]3[C@@H](O)C[C@@]21C	107%	-4.76%
Cc1cncc(CN2CCC(=C3c4ccc(Cl)cc4CCc4cccnc43)CC2)c1 [rupatadine]	54.6%	-6.86%
Cc1nccnc1N1CCCCC1	81.1%	-0.497%
CCCCCCOc1nsnc1C1=CCCN(C)C1 [xanomeline]	102%	-4.19%
CC(=O)OCC(=O)[C@@]12N=C(C)O[C@@H]1C[C@H]1[C@@H]3CCC4=CC(=O)C=C[C@]4(C)[C@H]3[C@@H](O)C[C@@]12C	109%	0.274%
O=C(O)CCCC[C@@H]1SC[C@@H]2NC(=O)N[C@@H]21 [biotin]	103% and 97.6%	1.24% and 0.129%
CC(C)C[C@H](NC(=O)CNC(=O)[C@H](Cc1ccc(O)cc1)NC(=O)[C@H](CO)NC(=O)[C@H](Cc1c[nH]c2ccccc12)NC(=O)[C@H](Cc1cnc[nH]1)NC(=O)[C@@H]1CCC(=O)N1)C(=O)N[C@@H](CCCNC(=N)N)C(=O)N1CCC[C@H]1C(=O)NCC(N)=O [gonadorelin]	109%	3.22%
CN1CCCC(CC2c3ccccc3Sc3ccccc32)C1 (stereo not given) [metixene]	128%	-8.29%
CN1CCc2cccc3c2[C@H]1Cc1ccc(O)c(O)c1-3 [(R)-(-)-Apomorphine·HCl]	68.7%	1.47%
C[N+](C)(CCOc1ccccc1)Cc1cccs1 [thenium closilate]	114%	-3.9%
CSCC1CN(/N=C/c2ccc([N+](=O)[O-])o2)C(=O)O1 (stereo not given) [nifuratel]	108%	-1.21%
C=CCOc1ccccc1OCC(O)CNC(C)C (stereo not given) [oxprenolol]	93%	-4.46%
CC[C@@]1(O)C(=O)OCc2c1cc1n(c2=O)Cc2cc3cc(O)ccc3nc2-1 [10-Hydroxycamptothecin]	43.6%	4.94%
COC(=O)C1=C(C)NC(C)=C(C(=O)OCCCN2CCC(c3ccccc3)(c3ccccc3)CC2)C1c1cccc([N+](=O)[O-])c1 (stereo not given) [dexniguldipine  iguldipine]	25.8%	-13.4%
NC(CCC(=O)O)C(=O)O (stereo not given)	99.1%	-4.72%
CC(=O)N1CCN(c2ccc(OCC3COC(Cn4ccnc4)(c4ccc(Cl)cc4Cl)O3)cc2)CC1 (stereo not given) [ketoconazole]	93.9% and 74.2% and 92%	-3.68% and -4.39% and -3.31%
C(=C(C1CCCCC1)C1CCCCC1)C1CCCCN1 (stereo not given) [hexadiline]	78.8%	0.134%
CN1C(=O)C(N2CCCCC2)S/C1=C\C(=O)O (stereo not given) [ozolinone]	89.2%	-5.41%
CN1[C@@H]2CC[C@H]1C[C@@H](OC(c1ccccc1)c1ccccc1)C2 [Cogentin]	101% and 113%	-8.05% and -3.24%
NC(=O)N=Nc1ccc2ccccc2c1O [naftazone]	57.4%	0.0624%
O=C1c2cc(Cl)ccc2OC2CCON12 (stereo not given) [seclazone]	107%	0.12%
O=C(Nc1cccc2c(=O)cc(-c3nnn[nH]3)oc12)c1ccc(OCCCCc2ccccc2)cc1 [pranlukast]	105%	-1.79%
N#C/C(=C1/SCC(c2ccccc2Cl)S1)n1ccnc1 (stereo not given) [lanoconazole]	95.3%	-6.29%
CC(NCCC(c1ccccc1)c1ccccc1)c1ccccc1 (stereo not given) [fendiline]	120%	-0.837%

Quoted at random: four entries already listed
SMILES	mCherry [1]	percent effect [2]
O=C(Nc1cccc2c(=O)cc(-c3nnn[nH]3)oc12)c1ccc(OCCCCc2ccccc2)cc1 [pranlukast]	105%	-1.79%
C[N+](C)(CCOc1ccccc1)Cc1cccs1 [thenium closilate]	114%	-3.9%
CCCC(=O)O[C@]1(C(=O)CO)CC[C@H]2[C@@H]3CCC4=CC(=O)CC[C@]4(C)[C@H]3[C@@H](O)C[C@@]21C	107%	-4.76%
C=CCOc1ccccc1OCC(O)CNC(C)C (stereo not given) [oxprenolol]	93%	-4.46%

Later entries

SMILES	mCherry [1]	percent effect [2]
CN(Cc1cnc2nc(N)nc(N)c2n1)c1ccc(C(=O)NC(CCC(=O)O)C(=O)O)cc1 (stereo not given)	124%	-2.81%
CC1=C(C(=O)O)N2C(=O)[C@@H](NC(=O)[C@H](N)c3ccc(O)cc3)[C@H]2SC1 [cefadroxil]	94.5%	-0.0212%
Cc1c(-c2ccc(O)cc2)n(Cc2ccc(OCCN3CCCCCC3)cc2)c2ccc(O)cc12 [bazedoxifene]	103%	0.726%
Cc1cn([C@H]2C=C[C@@H](CO)O2)c(=O)[nH]c1=O [stavudine]	107%	-4.01%
Oc1ccc(C2CNCCc3c2cc(O)c(O)c3Cl)cc1 (stereo not given)	53.8%	-1.83%
Nc1ncnc(Nc2ccc(Cl)cc2)n1	101%	-0.823%
CC1(C)OC(=O)C(OCC2CC2)=C1c1ccc(S(C)(=O)=O)cc1 [firocoxib]	111%	0.36%
Cc1ccc(Cl)c(OCC(O)CNC(C)(C)C)c1 (stereo not given) [bupranolol]	117%	-4.34%
Nc1ncnc2c1ncn2[C@@H]1O[C@H](CO)[C@@H](O)[C@H]1O	86.5%	0.169%
O=c1oc2cc(O)ccc2s1 [tioxolone]	99.8%	-0.613%
O=C(O)c1cc(=O)c2c(OCC(O)COc3cccc4oc(C(=O)O)cc(=O)c34)cccc2o1 [cromoglicic acid]	100%	-4.83%
CC(C)(C)CC(C)(C)c1ccc(O)c(-n2nc3ccccc3n2)c1 [octrizole]	88.6%	1.94%
N#C[C@@H]1C[C@@H]2C[C@@H]2N1C(=O)[C@@H](N)C12CC3CC(CC(O)(C3)C1)C2	104%	2.26%
CC1=C(/C=C/C(C)=C/C=C/C(C)=C/C=C/C=C(C)/C=C/C=C(C)/C=C/C2=C(C)C(=O)CCC2(C)C)C(C)(C)CCC1=O [Canthaxanthin]	78.7%	-1.65%
CN[C@H](C(=O)N[C@H](C(=O)N(C)[C@H](/C=C(\C)C(=O)O)C(C)C)C(C)(C)C)C(C)(C)c1ccccc1 [taltobulin]	94.4%	-9.62%
CN(CC1(C)CCCO1)S(=O)(=O)c1ccc(Cl)c(S(N)(=O)=O)c1 (stereo not given) [mefruside]	65.2%	0.977%
C#C[C@]1(O)CC[C@H]2[C@@H]3CCC4=C(CCC(=O)C4)[C@H]3CC[C@@]21C	84.4%	-0.859%
Oc1ccc(O)cc1	85.4%	-4.64%
CC=CC1=C(C(=O)O)N2C(=O)[C@@H](NC(=O)[C@H](N)c3ccc(O)cc3)[C@H]2SC1 [Cefprozil]	103%	-0.279%
CC/N=C(\NCC)NCCCC[C@H](NC(=O)[C@H](CC(C)C)NC(=O)[C@@H](CCCCN/C(=N/CC)NCC)NC(=O)[C@H](Cc1ccc(O)cc1)NC(=O)[C@H](CO)NC(=O)[C@@H](Cc1cccnc1)NC(=O)[C@@H](Cc1ccc(Cl)cc1)NC(=O)[C@@H](Cc1ccc2ccccc2c1)NC(C)=O)C(=O)N1CCC[C@H]1C(=O)N[C@H](C)C(N)=O [ganirelix]	105%	-3.24%
CCC1=C[C@@H]2CN(C1)Cc1c([nH]c3ccccc13)[C@@](C(=O)OC)(c1cc3c(cc1OC)N(C)[C@H]1[C@@](O)(C(=O)OC)[C@H](OC(C)=O)[C@]4(CC)C=CCN5CC[C@]31[C@@H]54)C2	23.9%	-3.13%
COc1ccc(/C=C/C(=O)Nc2ccccc2C(=O)O)cc1OC [tranilast]	104%	-3.44%
CCNCc1c(CSC)cnc(C)c1O [tamitinol]	129%	3.9%
Cc1cc(C2CCCCC2)n(O)c(=O)c1 [ciclopirox]	78.7% and 62.7%	-4.4% and -6.94%

SMILES	mCherry [1]	percent effect [2]
N=C(N)NC(=O)c1nc(Cl)c(N)nc1N [Amiloride]	89.9%	3.26%
CCCC(=O)OCOC(=O)C1=C(C)NC(C)=C(C(=O)OC)C1c1cccc(Cl)c1Cl (stereo not given) [Clevidipine]	91.2%	-3.93%
N[C@H](Cc1cnc[nH]1)C(=O)O	89.8%	-5.2%
O=C(OCc1ccccc1)c1ccccc1	99.9%	-2.77%
CCN(CC)C(=O)C1(c2ccccc2)CC1CN (stereo not given)	108%	0.398%
CC1=C(/C=C/C(C)=C/C=C/C(C)=C\C(=O)O)C(C)(C)CCC1 [isotretionin]	106%	-4.13%
CN(C)CC/C=C1\c2ccccc2CSc2ccccc21 [Dosulepin]	96.3%	-0.102%
OCC(O)C(O)C(O)C(O)CO (stereo not given)	105%	0.393%
COC(c1ccccc1)(c1ccccc1)[C@H](Oc1nc(C)cc(C)n1)C(=O)O [ambrisentan]	95.1%	-4.04%
CCC(C)C(CC)C(N)=O (stereo not given) [valnoctamide]	88.8%	-11%
C[C@]12CCC(=O)C=C1C=C[C@@H]1[C@@H]2CC[C@@]2(C)[C@H]1CC[C@@]21CCC(=O)O1 [canrenone]	94.2%	2.68%
C[C@]12CC[C@H](O)CC1=CC[C@@H]1[C@@H]2CC[C@]2(C)C(=O)CC[C@@H]12 [prasterone]	85.7% and 94.4%	-0.558% and -6.02%
CC(C(=O)O)c1ccc(CC2CCCC2=O)cc1 (stereo not given)	108%	-4.34%
CC1(S(=O)(=O)O)CC(=O)c2ccccc2C1=O (stereo not given) [menadione sodium bisulfite]	96.5%	1.19%
CC(=O)OCC(=O)[C@@]12OC(C)(C)O[C@@H]1C[C@H]1[C@@H]3C[C@H](F)C4=CC(=O)C=C[C@]4(C)[C@@]3(F)[C@@H](O)C[C@@]12C [fluocinonide]	107% and 87.7%	-0.624% and -1.52%
CC[C@H](C)[C@H](N)C1=N[C@H](C(=O)N[C@@H](CC(C)C)C(=O)N[C@H](CCC(=O)O)C(=O)N[C@H](C(=O)N[C@H]2CCCCNC(=O)[C@H](CC(N)=O)NC(=O)[C@@H](CC(=O)O)NC(=O)[C@H](Cc3cnc[nH]3)NC(=O)[C@@H](Cc3ccccc3)NC(=O)[C@H]([C@@H](C)CC)NC(=O)[C@@H](CCCN)NC2=O)[C@@H](C)CC)CS1 [bacitracin]	100%	-10.6%
CNCCCC1c2ccccc2C=Cc2ccccc21	134%	1.07%
CCN(CC)CCNC(=O)c1ccc(NC(C)=O)cc1	101%	-1.1%
O=C(O)[C@@H]1CCCN1 [proline]	83.4%	-5.23%
CCCCC(CC)COC(=O)CC(C(=O)OCC(CC)CCCC)S(=O)(=O)O (stereo not given) [docusate sodium]	14.2%	-14%
CCS(=O)(=O)c1cc2cc(C[C@](O)(CC(C)(C)c3ccc(F)cc3C(N)=O)C(F)(F)F)[nH]c2cn1	97.1%	-2.64%
C[C@H]1[C@H](NC(=O)/C(=N\OC(C)(C)C(=O)O)c2csc(N)n2)C(=O)N1S(=O)(=O)O [Azactam]	128%	-5.08%
